Source: PubChem BioAssay AID504467 (National Center for Advancing Translational Sciences (NCATS), 2011)
Screen size: about 330,000 compounds; about 7,700 (2.3%) were called active. This list was built around the results that the source calls inconclusive (neither active nor inactive); the mix of calls is not that of the screen. Calls come from the whole dose curve; as a rule, active = well fitted inhibition curve with a large enough effect; inconclusive = small, poorly fitted or top-dose-only effect, or effect the other way; inactive = flat fitted curve, though single readings scatter. Where the call is inconclusive, the potency comes from a doubtful curve fit.

assay: qHTS screen for small molecules that inhibit ELG1-dependent DNA repair in human embryonic kidney (HEK293T) cells expressing luciferase-tagged ELG1; conditions: HEK293T ELG1-luciferase reporter, luminescence, 16 h, DNA damage induced by 5-fluorouridine; activity change, negative = inhibition: at 46.1 µM (top of the series); note: nearly all actives have a fitted effect of over 55% in size
Procedure, shortened: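 In this reporter screen, reduction of luminescence relative to DMSO vehicle indicated activity. Compounds and 5-fluorouridine were added together to 2,000 cells per well, incubated for 16 hr at 37 °C, then developed with ONE-Glo.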
% is set by controls: 0 for no effect and ±100 for the full control effect; potency is the fitted concentration of half-maximal effect.

| SMILES | Potency | activity change, negative = inhibition |
| --- | --- | --- |
| COC(=O)c1ccc(CSc2ccccc2C)o1 | inconclusive: 10.3 µM [activator, partial curve, poor fit] | – |
| Cc1nc(NC(=O)/C=C/c2ccc(Cl)cc2Cl)sc1C(=O)N(C)C | inconclusive: 23.1 µM [activator, partial curve, poor fit] | – |
| COc1cccc(-c2nc(N3CCCCC3C)c3ccccc3n2)c1O (centres undefined) | inconclusive: 11.6 µM [inhibitor, partial curve] | – |
| CCOc1nc(C)ccc1-c1noc(-c2cccnc2)n1 | inconclusive: 16.4 µM [activator, partial curve] | – |
| O=C(Nc1ccccc1)c1nccn1Cc1ccc(F)cc1 | inconclusive: 16.4 µM [activator, partial curve] | – |
| C=C(C)Cn1c(Sc2nc3ccccc3[nH]2)nc2c1c(=O)[nH]c(=O)n2C | active: 25.9 µM | – |
| CC1Cc2cc(/C=C3/SC(=S)NC3=O)ccc2O1 (centres undefined) | inconclusive: 20.6 µM [activator, partial curve] | – |
| COC(=O)Cc1ccc(NC(=S)NCCC(C)C)cc1 | – | inactive: 1.21% |
| COc1cccc(C(=O)Nc2nnc(-c3ccc(Cl)cc3)o2)c1 | – | inactive: -15.8% |
| c1ccc(C[C@H]2CN=C(Nc3ccccc3)N2CCC2CCCC2)cc1 | inconclusive: 15.8 µM [inhibitor, single point] | – |
| Cc1ccccc1NC(=O)CSc1nc(O)cc(=O)n1C | – | inactive: -3.73% |
| O=C(COC(=O)c1cnc(Cl)c(Cl)c1)NC1CCCCCC1 | inconclusive: 29.1 µM [activator, single point] | – |
| CSCC(=O)N1CCCC(N2CCN(c3cccc(C(F)(F)F)c3)CC2)C1 (centres undefined) | – | inactive: -10.2% |
| CNC(=O)CC1C(=O)N(Cc2ccccc2)C(=S)N1NC(=O)c1cccc(F)c1 (centres undefined) | – | inactive: 7.64% |
| Cc1cccnc1NC(=O)NC(=O)c1ccc(C(C)(C)C)s1 | inconclusive: 11.6 µM [activator, partial curve] | – |
| COc1ccc(/C=N/NC(=O)c2cnccn2)c(OC)c1OC | – | inactive: -5.02% |
| Cc1ccc(S(=O)(=O)CCSC(=N)N)cc1 | inconclusive: 23.1 µM [inhibitor, single point] | – |
| O=C(NCC1COc2ccccc2O1)c1ccco1 (centres undefined) | inconclusive: 23.1 µM [activator, single point] | – |
| COc1ccc(C(CNC(=O)COc2ccc(-c3ccccc3)cc2)N2CCOCC2)cc1 (centres undefined) | inconclusive: 6.51 µM [inhibitor, single point] | – |
| O=C(NCc1cccs1)C1CCN(S(=O)(=O)c2cccc3nsnc23)CC1 | – | inactive: -8.09% |
| CC(=O)c1ccc(N(C(=O)CNC(=O)c2ccco2)C(C(=O)NC2CCCC2)c2ccncc2)cc1 (centres undefined) | – | inactive: -5.81% |
| CC1CCCN(C(=O)CSc2nnc(-c3cccs3)o2)C1 (centres undefined) | inconclusive: 14.6 µM [activator, partial curve] | – |
| O=C1[C@H]2[C@@H](c3ccc(F)cc3)N3C(=O)N(c4ccc(Br)cc4)C(=O)[C@@]3(Cc3ccc(Cl)cc3)[C@H]2C(=O)N1C1CCCCC1 | inconclusive: 0.0058 µM [inhibitor, full curve, poor fit] | – |

| SMILES | Potency | activity change, negative = inhibition |
| --- | --- | --- |
| COc1ccc(Cl)cc1/C=C/c1ccc2cccc(O)c2n1 | inconclusive: 23.1 µM [activator, single point] | – |
| O=c1[nH]cc(NCCc2ccccc2)c(=O)[nH]1 | inconclusive: 18.3 µM [activator, single point] | – |
| c1ccc(-c2nc(-c3ccc(-c4ccon4)s3)no2)cc1 | inconclusive: 6.51 µM [activator, partial curve] | – |
| CC1(C)C([N+](=O)[O-])C(c2ccc(F)cc2)NC(c2ccc(F)cc2)C1[N+](=O)[O-] (centres undefined) | inconclusive: 23.1 µM [inhibitor, single point] | – |
| Cc1cc(-c2ccccc2)nc(Oc2ccc(C(C)(C)C)cc2)c1S(C)(=O)=O | – | inactive: -21.1% |
| Cc1cccc(N(Cc2cc(=O)[nH]c3ccccc23)C(=O)C(C)C)c1 | inconclusive: 29.1 µM [activator, partial curve, poor fit] | – |
| COC(=O)c1[nH]c2ccc(Br)cc2c1NC(=O)CN1CCN(C2CCCCC2)CC1 | inconclusive: 23.1 µM [inhibitor, single point] | – |
| CCN(CC)S(=O)(=O)c1ccc(S(=O)(=O)N2CCCC2)cc1 | inconclusive: 25.9 µM [inhibitor, partial curve, poor fit] | – |
| CCOC(=O)c1nnc(-c2ccccc2)nc1NCc1ccc(Cl)cc1 | inconclusive: 35.5 µM [inhibitor, single point] | – |
| COc1ccc([C@H]2CC(=O)C=C(c3ccc(C)c([N+](=O)[O-])c3)C2)cc1 | inconclusive: 2.06 µM [activator, partial curve, poor fit] | – |
| COc1ccc(CCNC(=O)c2cc(COc3c(C)cccc3C)on2)c(OC)c1 | inconclusive: 14.6 µM [activator, partial curve] | – |
| COc1ccc(NC(=O)CN2CCCCC2)c([N+](=O)[O-])c1 | inconclusive: 13 µM [activator, partial curve] | – |
| Cc1cc(NC(=O)Cn2cnc3sccc3c2=O)no1 | inconclusive: 20.6 µM [activator, partial curve, poor fit] | – |
| CCOc1ccc2nc(NCCNC(=O)Nc3ccccc3)c(C#N)cc2c1 | inconclusive: 29.1 µM [inhibitor, single point] | – |
| COc1cccc(NC(=O)CN2C(=O)COc3ccc(C)cc32)c1 | inconclusive: 8.2 µM [inhibitor, partial curve, poor fit] | – |
| CCn1c(SCC(=O)N/N=C/C=C/c2ccccc2[N+](=O)[O-])nnc1-c1ccc(Cl)cc1 | inconclusive: 16.4 µM [inhibitor, single point] | – |
| COc1cc2c(cc1OC)CN(C(=O)/C=C/c1cccc([N+](=O)[O-])c1)CC2 | – | inactive: -20.3% |
| Cc1cc(NC(=S)Nc2ccc(C)c(Cl)c2)n[nH]1 | inconclusive: 23.1 µM [activator, partial curve] | – |
| COc1ccc(-c2cc(=NC(CC(C)C)C(=O)O)c3cc(C)ccc3o2)cc1 (centres undefined) | inconclusive: 0.517 µM [activator, full curve] | – |
| CCC(C)c1ccc(NC(=S)NCc2ccccc2OC)cc1 (centres undefined) | inconclusive: 29.1 µM [inhibitor, single point] | – |
| O=C(CSc1c2c(nc3cc(Cl)ccc13)CCCC2)NCCN1CCOCC1 | – | inactive: -10.2% |
| Cc1ccc(Oc2ccc(S(=O)(=O)N3CCOCC3)cc2C(N)=O)cc1C | – | inactive: -4.16% |
| Cc1c(CCC(=O)O)c(=O)oc2cc(OCc3ccccc3F)ccc12 | – | inactive: 2.22% |

| SMILES | Potency | activity change, negative = inhibition |
| --- | --- | --- |
| O=C(CSc1nnc(-c2c[nH]c3ccccc23)o1)N1c2ccccc2CCc2ccccc21 | inconclusive: 0.231 µM [inhibitor, partial curve, poor fit] | – |
| COc1ccc(CCN2CC(C(=O)N(C)C3CCOCC3)CCC2=O)cc1 (centres undefined) | inconclusive: 16.4 µM [activator, partial curve, poor fit] | – |
| CC(=O)c1ccc(NC(=O)CN2CCC(NC(=O)C3CCCCC3)CC2)cc1 | inconclusive: 6.51 µM [inhibitor, single point] | – |
| Cc1ccc(N2CCN(S(=O)(=O)c3ccc4c(c3)oc(=O)n4C)CC2C)cc1 (centres undefined) | – | inactive: 3.55% |
| O=C(NCCN1CCOCC1)c1ccc(=O)n(Cc2ccc(Cl)cc2)c1 | – | inactive: 17.4% |
| CCOC(=O)N1CCN(C(=O)CSc2nc3c([nH]c4ccccc43)c(=O)n2CCOC)CC1 | active: 7.3 µM | – |
| COc1cccc(C2C(C#N)=C(N)N(N(C)C)C3=C2C(=O)CCC3)c1 (centres undefined) | inconclusive: 32.6 µM [inhibitor, partial curve, poor fit] | – |
| Cc1ccc(/C=N/Nc2cc(C)nc(N3CCOCC3)n2)cc1 | inconclusive: 20.6 µM [activator, single point] | – |
| CCN(CC)c1ccc2c(c1)oc(=O)c1c(Cl)cc(=O)oc12 | inconclusive: 14.1 µM [inhibitor, single point] | – |
| C=CCOc1cccc(CNc2ccc3[nH]c(=O)[nH]c3c2)c1 | inconclusive: 29.1 µM [inhibitor, single point] | – |
| Cc1ccc([N+](=O)[O-])cc1Nc1nc(N2CCOCC2)nc(N2CCOCC2)n1 | active: 16.4 µM | – |
| COc1cccc(CN2CCNC(=O)C2CC(=O)NCCc2nc(C)c(C)s2)c1OC (centres undefined) | – | inactive: -12.5% |
| CSc1nc(Sc2ccc(Cl)cc2)c2ccccc2n1 | inconclusive: 13 µM [inhibitor, partial curve, poor fit] | – |
| CCOC(=O)CNC(=O)C1COc2ccccc2O1 (centres undefined) | – | inactive: 0% |
| CC(NC(=O)c1ccccc1)C(=O)N/N=C/c1cccc([N+](=O)[O-])c1 (centres undefined) | inconclusive: 18.3 µM [activator, partial curve] | – |
| CN1C(=O)C(C)(C)c2cc(S(=O)(=O)N3CCCC(C(=O)NCc4ccccc4Cl)C3)ccc21 (centres undefined) | – | inactive: -28.9% |
| Cc1cc(OCC(=O)NCc2ccncc2)c2c(C)c(C)c(=O)oc2c1 | inconclusive: 16.4 µM [activator, partial curve, poor fit] | – |
| Cc1ccccc1NC(=O)Cc1nnc(SCC(=O)NC2CCCC2)n1C | – | inactive: 0.356% |
| COCC(C)n1c(SCc2cc(C(=O)OC)c(C)o2)nc2ccccc2c1=O (centres undefined) | inconclusive: 16.4 µM [inhibitor, partial curve] | – |
| CCc1nnc(NC(=O)c2cccc(OC)c2)s1 | inconclusive: 10.3 µM [activator, partial curve] | – |
| Cc1ccc(S(=O)(=O)N2CCN(C(=O)c3ccc(OCc4c(C)noc4C)cc3)CC2)cc1 | inconclusive: 20.6 µM [inhibitor, single point] | – |
| CN(C(=O)c1ccco1)c1nc(-c2ccc(Cl)cc2)cs1 | – | inactive: 0% |
| Oc1csc(Cc2nc(-c3ccc4ccccc4c3)cs2)n1 | inconclusive: 25.9 µM [activator, partial curve] | – |

3 of the compounds above, comma-delimited.
SMILES,Potency,"activity change, negative = inhibition"
Cc1ccc(/C=N/Nc2cc(C)nc(N3CCOCC3)n2)cc1,"inconclusive: 20.6 µM [activator, single point]",–
CSc1nc(Sc2ccc(Cl)cc2)c2ccccc2n1,"inconclusive: 13 µM [inhibitor, partial curve, poor fit]",–
COCC(C)n1c(SCc2cc(C(=O)OC)c(C)o2)nc2ccccc2c1=O (centres undefined),"inconclusive: 16.4 µM [inhibitor, partial curve]",–
